From publication PMC9089912 (PLoS ONE, 2022)
Strings that start with PEPTIDE1 are HELM notation: dots part the residues, brackets hold end groups and non-standard residues.

Test: general procedure: Fmoc solid-phase peptide synthesis
Conditions: whole synthesis; for final HPLC purity: all wavelengths

**Q.** For “PEPTIDE1{K.[DIT].K.W.[DIT].K.G.K.L}$$$$V2.0”, which isolated yield is on record?
**A.** 4%

**Q.** And the “final HPLC purity” value?
**A.** ≥ 96%

**Q.** What does the source list for “PEPTIDE1{K.[DIT].K.[DIT].W.[DIT].K.G.K.L}$$$$V2.0”?
**A.** isolated yield: 10%; final HPLC purity: ≥ 97%

**Q.** With “PEPTIDE1{K.[DIT].K.[DIT].[AEEA].W.Y.K.G.K.L}$$$$V2.0” as the substance, how does the isolated yield read?
**A.** 3%

**Q.** And the “final HPLC purity” value?
**A.** ≥ 99%

**Q.** With “PEPTIDE1{K.[DIT].W.[DIT].K.G.K.L}$$$$V2.0” as the substance, how does the isolated yield read?
**A.** 5%

**Q.** And the “final HPLC purity” value?
**A.** ≥ 99%

**Q.** With “PEPTIDE1{W.Y.K.G.K.L.[AEEA].[DIT].G}$$$$V2.0” as the substance, how does the isolated yield read?
**A.** 18%

**Q.** And the “final HPLC purity” value?
**A.** ≥ 99%

**Q.** For “PEPTIDE1{W.[DIT].K.G.K.L.[AEEA].[DIT].G}$$$$V2.0”, which isolated yield is on record?
**A.** 4%

**Q.** And the “final HPLC purity” value?
**A.** ≥ 99%

**Q.** What does the source list for PEPTIDE1{W.[DIT].K.G.K.L}$$$$V2.0?
**A.** isolated yield: 19%; final HPLC purity: ≥ 99%

**Q.** Which isolated yield does the source give for PEPTIDE1{W.[DIT].R.G.R.L}$$$$V2.0 here?
**A.** 4%

**Q.** And the “final HPLC purity” value?
**A.** ≥ 98%

**Q.** For PEPTIDE1{[DIT].W.G.K.K.L}$$$$V2.0, which isolated yield is on record?
**A.** 19%

**Q.** What about the “final HPLC purity” value of the same substance?
**A.** ≥ 98%

**Q.** What does the source list for PEPTIDE1{[DIT].W.[DIT].K.G.K.L}$$$$V2.0?
**A.** isolated yield: 20%; final HPLC purity: ≥ 97%

**Q.** For PEPTIDE1{[DIT].W.[DIT].R.G.R.L}$$$$V2.0, which isolated yield is on record?
**A.** 1%

**Q.** And the “final HPLC purity” value?
**A.** ≥ 96%

**Q.** Which results are given for “PEPTIDE1{[DIT].[AEEA].W.Y.K.G.K.L}$$$$V2.0”?
**A.** isolated yield: 26%; final HPLC purity: ≥ 98%

**Q.** For “PEPTIDE1{[DIT].[DIT].[AEEA].W.Y.K.G.K.L}$$$$V2.0”, which isolated yield is on record?
**A.** 5%

**Q.** What about the “final HPLC purity” value of the same substance?
**A.** ≥ 99%
